Test results taken from PMC10202959.
These are yes or no findings as the source states them, for the method shown. Some results given as binding are weak or reduced against the parent protein; the word gives no strength. Tags and fused reporters may be left off the sequences shown.

By UniProt entry, the sequences of proteins in these tests, tags left out. Residues count along the entry.
UniProt P04004, residues 20-478: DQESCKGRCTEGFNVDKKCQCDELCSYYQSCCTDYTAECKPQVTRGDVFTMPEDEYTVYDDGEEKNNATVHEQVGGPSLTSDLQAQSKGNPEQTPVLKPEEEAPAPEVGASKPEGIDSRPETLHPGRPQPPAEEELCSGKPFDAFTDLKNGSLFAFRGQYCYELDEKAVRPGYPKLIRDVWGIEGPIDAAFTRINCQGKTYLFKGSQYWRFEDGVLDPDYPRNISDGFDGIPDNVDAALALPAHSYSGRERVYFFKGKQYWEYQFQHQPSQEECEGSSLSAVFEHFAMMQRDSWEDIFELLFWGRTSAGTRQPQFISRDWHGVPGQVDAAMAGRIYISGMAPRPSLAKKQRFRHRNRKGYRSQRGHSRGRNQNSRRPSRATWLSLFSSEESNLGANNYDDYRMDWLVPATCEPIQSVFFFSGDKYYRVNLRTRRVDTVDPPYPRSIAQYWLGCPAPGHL
UniProt P24821, residues 23-2201: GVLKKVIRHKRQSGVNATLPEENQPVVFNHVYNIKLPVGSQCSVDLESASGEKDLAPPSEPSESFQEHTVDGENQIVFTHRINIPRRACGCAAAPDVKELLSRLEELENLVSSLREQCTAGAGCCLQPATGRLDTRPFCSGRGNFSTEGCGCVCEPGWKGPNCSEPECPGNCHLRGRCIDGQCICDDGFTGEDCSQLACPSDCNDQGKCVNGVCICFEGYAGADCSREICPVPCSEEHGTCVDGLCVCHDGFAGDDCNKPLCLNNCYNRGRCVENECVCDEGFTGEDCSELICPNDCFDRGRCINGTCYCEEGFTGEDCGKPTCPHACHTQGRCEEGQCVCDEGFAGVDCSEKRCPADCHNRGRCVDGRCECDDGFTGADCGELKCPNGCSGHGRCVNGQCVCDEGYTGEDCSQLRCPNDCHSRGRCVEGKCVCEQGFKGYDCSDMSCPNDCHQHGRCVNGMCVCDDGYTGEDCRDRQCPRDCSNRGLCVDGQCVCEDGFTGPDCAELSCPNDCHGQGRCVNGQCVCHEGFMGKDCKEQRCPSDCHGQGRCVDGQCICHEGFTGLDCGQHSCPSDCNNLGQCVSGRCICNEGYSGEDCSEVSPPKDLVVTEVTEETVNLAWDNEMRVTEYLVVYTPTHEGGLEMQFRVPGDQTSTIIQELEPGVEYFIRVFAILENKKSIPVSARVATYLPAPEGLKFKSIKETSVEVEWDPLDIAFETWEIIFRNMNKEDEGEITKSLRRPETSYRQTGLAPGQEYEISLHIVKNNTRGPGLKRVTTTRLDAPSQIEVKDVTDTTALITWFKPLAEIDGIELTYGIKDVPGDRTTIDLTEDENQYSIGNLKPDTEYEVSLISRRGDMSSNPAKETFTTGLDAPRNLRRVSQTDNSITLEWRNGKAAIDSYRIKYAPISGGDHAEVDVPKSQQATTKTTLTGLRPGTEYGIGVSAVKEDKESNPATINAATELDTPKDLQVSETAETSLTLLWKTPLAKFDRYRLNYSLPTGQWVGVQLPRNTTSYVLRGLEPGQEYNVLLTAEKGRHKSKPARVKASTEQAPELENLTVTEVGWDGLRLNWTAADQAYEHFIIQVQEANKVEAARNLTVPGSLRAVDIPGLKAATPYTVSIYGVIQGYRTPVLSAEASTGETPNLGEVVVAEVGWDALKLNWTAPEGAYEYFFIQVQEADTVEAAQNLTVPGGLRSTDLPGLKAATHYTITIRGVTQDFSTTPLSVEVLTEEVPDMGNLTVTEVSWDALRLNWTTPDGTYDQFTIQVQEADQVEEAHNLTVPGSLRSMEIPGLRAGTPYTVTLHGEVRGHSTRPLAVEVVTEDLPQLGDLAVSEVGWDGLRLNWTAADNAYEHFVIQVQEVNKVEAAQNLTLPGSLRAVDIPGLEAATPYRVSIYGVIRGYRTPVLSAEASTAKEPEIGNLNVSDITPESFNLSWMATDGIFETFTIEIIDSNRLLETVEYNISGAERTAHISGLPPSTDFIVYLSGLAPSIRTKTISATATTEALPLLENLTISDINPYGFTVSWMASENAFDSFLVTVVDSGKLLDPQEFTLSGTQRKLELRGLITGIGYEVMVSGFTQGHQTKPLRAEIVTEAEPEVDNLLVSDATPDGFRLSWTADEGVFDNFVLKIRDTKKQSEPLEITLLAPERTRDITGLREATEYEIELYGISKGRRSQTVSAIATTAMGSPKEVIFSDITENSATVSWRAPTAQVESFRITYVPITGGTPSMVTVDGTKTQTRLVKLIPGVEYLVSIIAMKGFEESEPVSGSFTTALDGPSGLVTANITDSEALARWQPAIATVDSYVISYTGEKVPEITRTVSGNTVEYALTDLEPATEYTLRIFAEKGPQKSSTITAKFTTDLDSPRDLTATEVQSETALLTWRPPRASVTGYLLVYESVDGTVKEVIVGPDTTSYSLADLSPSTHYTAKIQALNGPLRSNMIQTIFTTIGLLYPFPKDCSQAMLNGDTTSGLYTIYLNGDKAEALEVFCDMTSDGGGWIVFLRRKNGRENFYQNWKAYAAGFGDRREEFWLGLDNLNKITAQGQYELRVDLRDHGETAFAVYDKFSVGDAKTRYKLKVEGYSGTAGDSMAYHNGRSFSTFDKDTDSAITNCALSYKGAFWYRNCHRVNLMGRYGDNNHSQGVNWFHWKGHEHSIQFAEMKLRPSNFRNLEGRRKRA

Key:
[1] = molecular target: human vitronectin (human) (UniProt P04004); test: ELISA; plates coated with 100 nM ECM protein in PBS; PDGF-BB or IL-1Ra variants at increasing concentrations in PBS-T with 0.1% BSA, 1 h at room temperature; detected with biotinylated antibodies; KD from a one site specific binding model; both purified
human tenascin C (human) = human tenascin C (human) (UniProt P24821); test: as above

B1: interleukin-1 receptor antagonist (IL-1Ra), wild type (ligand, UniProt P25085 27-178)
chain: RPSGKRPCKMQAFRIWDTNQKTFYLRNNQLIAGYLQGPNIKLEEKIDMVPIDLHSVFLGIHGGKLCLSCAKSGDDIKLQLEEVNITDLSKNKEEDKRFTFIRSEKGPTTSFESAACPGWFLCTTLEADRPVSLTNTPEEPLIVTKFYFQEDQ
With B1 the binding [1] was “binds” and the binding (human tenascin C (human)) was “binds”.
